Source: publication doi:10.1101/2023.12.19.572484
Results are given in words; binding and its absence hold for the method and conditions named. Binding seen in cells or lysates may run through a third protein. Some results given as binding are weak or reduced against the parent protein; the word gives no strength.

Chains of the proteins cited; added tags and fusions are not shown. Lines headed by an entry give the natural chain unless they say otherwise; changes in a name come on top.
UniProt P16045: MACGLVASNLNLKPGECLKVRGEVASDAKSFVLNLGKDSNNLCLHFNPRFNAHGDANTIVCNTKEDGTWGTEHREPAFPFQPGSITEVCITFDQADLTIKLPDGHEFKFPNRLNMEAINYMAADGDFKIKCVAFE
UniProt P01731: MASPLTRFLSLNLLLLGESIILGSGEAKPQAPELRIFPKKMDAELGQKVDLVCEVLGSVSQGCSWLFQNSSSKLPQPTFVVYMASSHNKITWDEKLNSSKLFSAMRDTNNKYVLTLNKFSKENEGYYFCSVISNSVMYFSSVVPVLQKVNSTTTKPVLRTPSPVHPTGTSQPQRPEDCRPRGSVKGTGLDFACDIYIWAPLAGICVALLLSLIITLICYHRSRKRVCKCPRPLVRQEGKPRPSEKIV

Target: recombinant Galectin-1 coupled with sepharose beads (UniProt P16045)
Test: pull-down

Substance: CD8α/β of wild-type control OT-1 CD8+ T-cells (from UniProt P01731 28-247; P10300 22-213) (complex)
- binding: binds
